PubChem BioAssay AID1224830 | NIAID | 2016
This is one part, drawn at random, of about 18,000 reagents. About 2,900 of them (16%) count as active. 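Calls are made per well; low scores hint the gene aids the LPS response, high scores that it dampens it.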 Unmarked entries are inactive. Repeated entries: four replicate wells of each siRNA pool. Reagent sequences are not shown.

Screen: 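Genes whose knock-down alters the TNF-alpha reporter response to LPS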 (primary screen)
Cell system: human THP-1 monocytic leukaemia cells, TNF dual-luciferase reporter clone, PMA-differentiated to macrophage-like cells
Reagents: siRNA pool against human genes, 50 nM
Duration: LPS for 4 h, given about 3 days after siRNA transfection
Conditions: bacterial LPS (TLR4 ligand), 10 ng/ml
Measured: 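TNF firefly reporter luminescence divided by renilla, normalised to the plate median, then turned into a robust z-score for each replicate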
Reading the numbers: TNF reporter robust z-score: higher = stronger TNF reporter response to LPS
Hit rule: 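Each well counts as active if its z-score is over 2.8 or under -1.5; controls are left without a call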

| gene | TNF reporter robust z-score |
| --- | --- |
| ATP6V1G2 | 0.55 |
| ATP6V1G2 | 0.85 |
| ATP6V1G2 | 1.15 |
| ATP6V1G2 | 2.39 |
| SERTM1 | -0.69 |
| SERTM1 | -0.49 |
| SERTM1 | -0.81 |
| SERTM1 | -0.22 |
| EMX2 | -0.14 |
| EMX2 | 1.19 |
| EMX2 | 1.52 |
| EMX2 | 1.8 |
| DUSP1 | -0.22 |
| DUSP1 | -0.07 |
| DUSP1 | -0.71 |
| DUSP1 | 0.22 |
| USP38 | -0.65 |
| USP38 | 0.06 |
| USP38 | 0.48 |
| USP38 | 1.16 |
| GATA1 | -0.5 |
| GATA1 | -0.17 |
| GATA1 | -0.25 |
| GATA1 | -0.47 |
| BCL2L14 | 0 |
| BCL2L14 | -0.49 |
| BCL2L14 | -0.17 |
| BCL2L14 | -0.23 |
| TMEM258 | -0.9 |
| TMEM258 | -1.15 |
| TMEM258 | -0.88 |
| TMEM258 | -0.81 |
| CYYR1 | 1.32 |
| CYYR1 | 0.37 |
| CYYR1 | 0.38 |
| CYYR1 | 1.53 |
| SGIP1 | 0.6 |
| SGIP1 | 0.38 |
| SGIP1 | 0.02 |
| SGIP1 | -0.02 |
| THOC5 | 0.25 |
| THOC5 | 1.23 |
| THOC5 | -0.45 |
| THOC5 | 0.45 |
| MYBPC3 | -0.53 |
| MYBPC3 | 0.52 |
| MYBPC3 | -0.28 |
| MYBPC3 | 0.55 |
